# US20140220040A1
# Legend:
# LRP6 D264->N = test: FACS on cells transfected with LRP6 D264->N, FSC-Height against FL2-Height
# LRP6 1a = test: FACS on cells transfected with the human/mouse chimera LRP6 1a, FSC-Height against FL2-Height PE
# LRP6 1b = test: FACS on cells transfected with the human/mouse chimera LRP6 1b, FSC-Height against FL2-Height PE
# LRP6 I236->T = test: FACS on cells transfected with LRP6 I236->T, FSC-Height against FL2-Height
# LRP6 S243->T = test: FACS on cells transfected with LRP6 S243->T (as labelled; the text calls it S243N)
# [1] = target: human/mouse chimeric LRP6 propeller domain 1 construct 1c; test: FACS on cells expressing the chimeric construct
binder,measurement,setting,value
"anti-LRP6 monoclonal antibody 135.16 (antibody, V domains shown) VH: QVQLQQSGAELVKPGASVKMSCKAFGYTFTSYPIEWMKQNHGKSLEWIGNFHPYNDNTKYNEKFKGKAKLTVEKSSSTVYLELSRSTSDDSAVYYCARGYSGNYFSAMDYWGQGTSVTVSS VL: DIVMTQSQKFMSTSVGDRVSITCKASQNVRNDVAWYQQKPGQSPKSLIYLASNRHTGVPDRFTGSGSGTDFTLTISNVQSEDLADYFCLQHWNYPYTFGGGTKLEIKR",binding,LRP6 D264->N,binds
same,binding,LRP6 1a,binds
same,binding,LRP6 1b,binds
same,binding,LRP6 I236->T,binds
same,binding,LRP6 S243->T,no binding (tested: not stated)
same,binding,[1],no binding

# No constants are given. Whether binding was seen depends on the method and setting. For part of these data: Binding can be weak; no strength is given.
